Results: US6462055B2, “Alpha-methylbenzyl-containing thiourea inhibitors of herpes viruses containing a phenylenediamine group” (Wyeth, priority 1998, dated 2002)
≈ marks a conversion by molar mass, not a printed value. At least one structure is not confirmed: it was looked up by name or label, or the drawing left a doubt.

test system: HCMV recombinant mutant virus (RV145); assay type: cell-based, human cytomegalovirus
From the text: Microtiter plate assay. Ninety-six well plate cultures of human foreskin fibroblasts are infected in the presence of inhibitor compound with a HCMV recombinant mutant virus whose genome contains the prokaryotic beta-glucuronidase gene (Jefferson, R. A., S. M. Burgess, and D. Hirsh. 1986. Beta-glucuronidase from Escherichia coli as a gene fusion marker. Proc. Natl. Acad. Sci. USA 83:8447-8451) whose expression is controlled by a viral promoter. An example of such a virus is RV145 (Jones, T. R., V. P. Muzithras, and Y. Gluzman. 1991. Replacement mutagenesis of the human cytomegalovirus genome: US10 and US11 gene products are nonessential. J. Virol. 65:5860-5872). Since it is under the control of a viral promoter, beta-glucuronidase expression is an indirect indicator of growth and replication of HCMV in this assay. At 96 hours post-infection, the infected cell lysates are prepared (using 50 mM sodium phosphate [pH7.0]containing 0.1% Triton X-100 and 0.1% sarkosyl) and assayed for beta-glucuronidase activity using a substrate for the enzyme which when cleaved yields either a product which can be measured […] in a spectrophotometer or fluorescently in a microfluorimeter. Examples of such substrates are p-nitrophenyl-beta-D-glucuronide and methylumbelliferylglucuronide, respectively. The presence of an antiviral compound is indicated by the reduced expression of the HCMV genome resident beta-glucuronidase gene, compared to the absence of inhibitor. […] Data from this assay generated using varying amounts of inhibitor compound is also used to estimate the IC50 of an inhibitor compound.

| SMILES | IC50 ug/ml HCMV |
| --- | --- |
| Cc1cccc(NC(=S)Nc2ccc(NC(=O)c3ccccc3F)cc2)c1 [Example 432] | 10 µg/mL (≈ 26.4 µM) |
| COc1cccc(NC(=S)Nc2ccc(NC(=O)c3ccccc3F)cc2)c1 [Example 487] | 10 µg/mL (≈ 25.3 µM) |
| O=C(Nc1ccc(NC(=S)Nc2ccc3[nH]cnc3c2)cc1)c1ccccc1F [Example 496] | 10 µg/mL (≈ 24.7 µM) |
| Cc1nc2cc(NC(=S)Nc3ccc(NC(=O)c4ccccc4F)cc3)ccc2[nH]1 [Example 497] | 10 µg/mL (≈ 23.8 µM) |
